From US10238688B2, “Combination therapies for bladder cancer” (GENEDIA BIOTECH CO. LTD., priority 2015, dated 2019)

Tested on: nine cancer-associated signaling pathways
Assay: Pearson correlation of collective drug-triggered pathway activities (single drug versus EH/Ci/Mi regimen)
Conditions: for Digitalized drug-triggered changes, number of pathways (1): activated; for Digitalized drug-triggered changes, number of pathways 0: null; for Digitalized drug-triggered changes, number of pathways (−1): repressed

SMILES | Digitalized drug-triggered changes, number of pathways (1) (5637 cells) | Digitalized drug-triggered changes, number of pathways 0 (5637 cells) | Digitalized drug-triggered changes, number of pathways (−1) (5637 cells) | Digitalized drug-triggered changes, number of pathways (1) (Biu87 cells) | Digitalized drug-triggered changes, number of pathways 0 (Biu87 cells) | Digitalized drug-triggered changes, number of pathways (−1) (Biu87 cells) | Digitalized drug-triggered changes, number of pathways (1) (H-bc cells) | Digitalized drug-triggered changes, number of pathways 0 (H-bc cells) | Digitalized drug-triggered changes, number of pathways (−1) (H-bc cells) | Digitalized drug-triggered changes, number of pathways (1) (SV-HUC-1 cells) | Digitalized drug-triggered changes, number of pathways 0 (SV-HUC-1 cells) | Digitalized drug-triggered changes, number of pathways (−1) (SV-HUC-1 cells) | Digitalized drug-triggered changes, number of pathways (1) (UM-UC-3 cells) | Digitalized drug-triggered changes, number of pathways 0 (UM-UC-3 cells) | Digitalized drug-triggered changes, number of pathways (−1) (UM-UC-3 cells)
COc1cccc2c1C(=O)c1c(O)c3c(c(O)c1C2=O)C[C@@](O)(C(=O)CO)C[C@@H]3[C@@H]1C[C@H](N)[C@@H](O)[C@H](C)O1 [EH, (8R,10S)-10-((2S,4S,5R,6S)-4-amino-5-hydroxy-6-methyltetrahydro-2H-pyran-2-yl)-6,8,11-trihydroxy-8-(2-hydroxyacetyl)-1-methoxy-7,8,9,10-tetrahydrotetracene-5,12-dione] | 6 | 3 | 0 | 4 | 5 | 0 | 3 | 6 | 0 | 4 | 5 | 0 | 4 | 3 | 1
COC12C(COC(N)=O)C3=C(C(=O)C(C)=C(N)C3=O)N1CC1NC12 (stereo not drawn) [Mi, [6-Amino-8a-methoxy-5-methyl-4,7-dioxo-1,1a,2,4,7,8,8a,8b-octahydroazireno [2′,3′:3,4]pyrrolo[1,2-a]indol-8-yl]methyl carbamate] | 8 | 1 | 0 | 4 | 5 | 0 | 1 | 3 | 5 | 3 | 6 | 0 | 2 | 5 | 2
N.N.[Cl][Pt][Cl] [Ci, (SP-4-2)-diamminedichloroplatinum(II)] | 5 | 3 | 1 | 1 | 6 | 2 | 1 | 5 | 3 | 3 | 6 | 0 | 6 | 0 | 3
